Six molecules from US20200123233A1 can be followed below.

No constants are given. Whether binding was seen depends on the method and setting. Some entries that bind do so weakly or less than the wild type.

For assay [1], the target named is FTM-NN (membrane anchorless form of the Long fusion protein, 70 kDa) (human respiratory syncytial virus, strain Long) (UniProt P12568). In words: ELISA, 1 µg/ml FTM-NN coated.
Assay [2] has the same target. Nature of the assay: SPR on FTM-NN; numbers stand in Table C-5.
Substrate in assay [3]: F protein of hRSV strain Long (human respiratory syncytial virus, strain Long) (UniProt P12568)
In words: ELISA, 5 µg/ml hRSV (Hytest) coated. (In general: In an ELISA, binding on a coated surface is turned into a signal by an enzyme label.)

B1: RSVPMP15H8 (VHH)
VHH: EVQLVESGGGLVQAGGSLRLSCAASGRSFSNYVLGWFRQAPGKEREFVAAISFRGDSAIGAPSVEGRFTISRDNAKNTGYLQMNSLVPDDTAVYYCGAGTPLNPGAYIYDWSYDYWGRGTQVTVSS
Regarding B1, the binding entry in assay [1], in assay [2] and in assay [3] was “binds” throughout.

B2: LG191D3 (VHH)
VHH: EVQLVESGGGLVQAGGSLRLSCEASGRTYSRYGMGWFRQAPGKEREFVAAVSRLSGPRTVYADSVKGRFTISRDNAENTVYLQMNSLKPEDTAVYTCAAELTNRNSGAYYYAWAYDYWGQGTQVTVSS
For the molecule B2, in assay [2], the binding result is “binds”.

B3: RSVNC23 (VHH)
VHH: EVQLVESGGGLVQPGGSLRLSCAASGRTFSSIAMGWFRQAPGKEREFVAAISWSRGRTFYADSVKGRFIISRDDAANTAYLQMNSLKPEDTAVYYCAVDTASWNSGSFIYDWAYDHWGQGTQVTVSS
Take B3: the binding result in assay [1], in assay [2] and in assay [3] was “binds” each time.

B4: RSVPMP7B2 (VHH)
VHH: EVQLVESGGGLVQAGDSLRLSCAASGRTFSSYAMGWFRQAPGKEREFVAAISWSDGSTYYADSVKGRFTISRDNAKNTVYLQMNSLKPEDTAVYYCAADLTSTNPGSYIYIWAYDYWGQGTQVTVSS
With B4, the binding result in assay [1], in assay [2] and in assay [3] was “binds” throughout.

B5: LG191E4 (VHH)
VHH: EVQLVESGGGLVQAGGSLRLSCAASGPTFSADTMGWFRQAPGKEREFVATIPWSGGIAYYSDSVKGRFTMSRDNAKNTVDLQMNSLKPEDTALYYCAGSSRIYIYSDSLSERSYDYWGQGTQVTVSS
Take B5: the binding entry in assay [2] is listed as “binds”.

B6: RSVPMP15B3 (VHH)
VHH: EVQLVESGGGLVQPGGSLRLSCAASGLTLDYYALGWFRQAPGKEREGVSCISSSDHSTTYTDSVKGRFTISWDNAKNTLYLQMNSLKPGDTAVYYCAADPALGCYSGSYYPRYDYWGQGTQVTVSS
Turning to B6, the binding result in assay [1], in assay [2] and in assay [3] was “binds” in each case.
